Data as given in PubChem BioAssay AID1259254 (NCATS, 2017)

- Aim: 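Gene knock-downs that lead to re-replication, shown by excess G2 DNA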 (primary screen)
- Cells: human HCT116 colorectal cancer cells
- Knock-down reagent: single siRNA against human genes
- Time to read-out: 3 days
- Measurement: 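Imaged Hoechst DNA stain sorts each cell into a cycle phase by DNA amount; per plate, G2 fraction set to 0% for non-targeting and 100% for GMNN siRNA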
- Reading the numbers: G2 robust z-score and G2 cells, % of GMNN control: higher = more G2 cells, more excess DNA replication
- Rule for the call: 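Active siRNAs have a G2 robust z of 5 or more median absolute deviations over the median, which in these data means about 38% or higher of GMNN control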
Here is a random part of about 59,000 reagents. In the full data, about 1,550 (2.6%) got an active call. 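G2 share is only a proxy for re-replication; each gene was hit by three separate siRNAs, and active genes were retested.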 The numbers tell different reagents against one gene apart. Further read-outs or replicates are left out here. No sequences are given here. Not given: the amount of reagent.

The first 2 records, to show the layout:
NOTCH2NLA (notch 2 N-terminal like A) #1 | G2 robust z-score: 0.879; G2 cells, % of GMNN control: 9.15; Outcome: inactive
NOTCH2NLA (notch 2 N-terminal like A) #2 | G2 robust z-score: -0.367; G2 cells, % of GMNN control: 0.388; Outcome: inactive

Results, from the first entry:
NOTCH2NLA (notch 2 N-terminal like A) #1 | G2 robust z-score: 0.879; G2 cells, % of GMNN control: 9.15; Outcome: inactive
NOTCH2NLA (notch 2 N-terminal like A) #2 | G2 robust z-score: -0.367; G2 cells, % of GMNN control: 0.388; Outcome: inactive
NOTCH2NLA (notch 2 N-terminal like A) #3 | G2 robust z-score: 0.189; G2 cells, % of GMNN control: 4.3; Outcome: inactive
RNASEH2A (ribonuclease H2 subunit A) #1 | G2 robust z-score: -0.563; G2 cells, % of GMNN control: -0.995; Outcome: inactive
RNASEH2A (ribonuclease H2 subunit A) #2 | G2 robust z-score: -1.63; G2 cells, % of GMNN control: -8.53; Outcome: inactive
RNASEH2A (ribonuclease H2 subunit A) #3 | G2 robust z-score: -0.576; G2 cells, % of GMNN control: -1.08; Outcome: inactive
POLR2J3 (RNA polymerase II subunit J3) #1 | G2 robust z-score: 3.8; G2 cells, % of GMNN control: 29.7; Outcome: inactive
POLR2J3 (RNA polymerase II subunit J3) #2 | G2 robust z-score: 1.85; G2 cells, % of GMNN control: 16; Outcome: inactive
POLR2J3 (RNA polymerase II subunit J3) #3 | G2 robust z-score: 2.25; G2 cells, % of GMNN control: 18.8; Outcome: inactive
DTYMK (deoxythymidylate kinase) #1 | G2 robust z-score: -1.18; G2 cells, % of GMNN control: -5.36; Outcome: inactive
DTYMK (deoxythymidylate kinase) #2 | G2 robust z-score: 0.191; G2 cells, % of GMNN control: 4.31; Outcome: inactive
DTYMK (deoxythymidylate kinase) #3 | G2 robust z-score: -1.03; G2 cells, % of GMNN control: -4.29; Outcome: inactive
RGS11 (regulator of G protein signaling 11) #1 | G2 robust z-score: -0.202; G2 cells, % of GMNN control: 1.55; Outcome: inactive
RGS11 (regulator of G protein signaling 11) #2 | G2 robust z-score: 2.92; G2 cells, % of GMNN control: 23.5; Outcome: inactive
RGS11 (regulator of G protein signaling 11) #3 | G2 robust z-score: 0.0862; G2 cells, % of GMNN control: 3.57; Outcome: inactive
AMHR2 (anti-Mullerian hormone receptor type 2) #1 | G2 robust z-score: -1.08; G2 cells, % of GMNN control: -4.63; Outcome: inactive
AMHR2 (anti-Mullerian hormone receptor type 2) #2 | G2 robust z-score: -1.04; G2 cells, % of GMNN control: -4.37; Outcome: inactive
AMHR2 (anti-Mullerian hormone receptor type 2) #3 | G2 robust z-score: -0.224; G2 cells, % of GMNN control: 1.39; Outcome: inactive
MAMDC2 (MAM domain containing 2) #1 | G2 robust z-score: -0.827; G2 cells, % of GMNN control: -2.85; Outcome: inactive
MAMDC2 (MAM domain containing 2) #2 | G2 robust z-score: 0.199; G2 cells, % of GMNN control: 4.37; Outcome: inactive
MAMDC2 (MAM domain containing 2) #3 | G2 robust z-score: -1.13; G2 cells, % of GMNN control: -4.97; Outcome: inactive
MUC2 (mucin 2, oligomeric mucus/gel-forming) #1 | G2 robust z-score: 0.277; G2 cells, % of GMNN control: 4.92; Outcome: inactive
MUC2 (mucin 2, oligomeric mucus/gel-forming) #2 | G2 robust z-score: 1.26; G2 cells, % of GMNN control: 11.9; Outcome: inactive
MUC2 (mucin 2, oligomeric mucus/gel-forming) #3 | G2 robust z-score: 1.17; G2 cells, % of GMNN control: 11.2; Outcome: inactive
